Not every detail of the peptide structures is certain; ends, links or a residue may be inferred. No end group written: not given here.
Test system: Sprague-Dawley rats
Assay: Neurobehavioral evaluation after pMCAO
Assay type: in vivo, rat
Conditions: scale 0 to 12

With YGRKKRRQRRRKLSSIESDV [Tat-NR2B9c(SDV)] the “NS@2 hrs (neurobehavior score)” value (1st study, 0.3 nmol/g) was 10.50 ± 0.27, the “NS 24 hrs (neurobehavior score)” value (1st study, 0.3 nmol/g) was 10.37 ± 0.26 and the “NS@2 hrs (neurobehavior score)” value (1st study, 3 nmol/g) was 10.88 ± 0.13. The “NS 24 hrs (neurobehavior score)” value (1st study, 3 nmol/g) was 10.00 ± 0.42, the “NS@2 hrs (neurobehavior score)” value (2nd study, 0.3 nmol/g) was 10.86 ± 0.13 and the “NS 24 hrs (neurobehavior score)” value (2nd study, 0.3 nmol/g) was 10.43 ± 0.28.
With YGRKKRRQRRRKLSSIETDV [Tat-NR2B9c(TDV)] the “NS@2 hrs (neurobehavior score)” value (1st study, 0.3 nmol/g) was 11.00 ± 0.00, the “NS 24 hrs (neurobehavior score)” value (1st study, 0.3 nmol/g) was 10.55 ± 0.41 and the “NS@2 hrs (neurobehavior score)” value (1st study, 3 nmol/g) was 11.25 ± 0.16. For the same sequence, the “NS 24 hrs (neurobehavior score)” value (1st study, 3 nmol/g) was 10.37 ± 0.42, the “NS@2 hrs (neurobehavior score)” value (2nd study, 0.3 nmol/g) was 10.63 ± 0.18 and the “NS 24 hrs (neurobehavior score)” value (2nd study, 0.3 nmol/g) was 10.63 ± 0.18. For the same sequence, the “NS@2 hrs (neurobehavior score)” value (2nd study, 3 nmol/g) was 10.60 ± 0.24 and the “NS 24 hrs (neurobehavior score)” value (2nd study, 3 nmol/g) was 11.00 ± 0.00.

From patent publication US8685925B2, “Method and compositions for treating stroke with fever” (Nono Inc., priority 2006, dated 2014)
